Laboratory results reported in publication PMC10437088.
Results are given in words; binding and its absence hold for the method and conditions named. Binding seen in cells or lysates may run through a third protein. Here binding means that the protein was enriched with, or labelled near, the bait; the list need not be complete. Where a sequence is shown, tags or fusion partners need not be part of it.

Amino acid sequences for entries named in this document (tags omitted). A change or cut given only in a name is not applied to a line headed by its entry.
UniProt Q6NZQ0: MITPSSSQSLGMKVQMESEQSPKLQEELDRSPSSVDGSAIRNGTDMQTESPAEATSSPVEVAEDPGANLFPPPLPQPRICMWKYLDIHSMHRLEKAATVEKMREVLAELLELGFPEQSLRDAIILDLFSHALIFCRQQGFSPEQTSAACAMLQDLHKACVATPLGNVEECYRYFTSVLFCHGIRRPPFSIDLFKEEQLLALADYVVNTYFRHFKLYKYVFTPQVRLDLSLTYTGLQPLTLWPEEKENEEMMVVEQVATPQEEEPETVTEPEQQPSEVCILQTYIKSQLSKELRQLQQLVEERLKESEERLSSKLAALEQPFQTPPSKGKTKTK
UniProt Q61025: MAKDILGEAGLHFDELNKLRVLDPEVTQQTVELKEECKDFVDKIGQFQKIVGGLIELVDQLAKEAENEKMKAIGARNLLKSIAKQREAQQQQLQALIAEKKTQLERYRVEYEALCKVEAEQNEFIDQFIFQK

B1: CABCOCO1 protein in the testes of Ccdc189-EGFP mice (protein, UniProt Q8CDT7 1-208)
chain: MNFSIEQYSKFMTLLDMLLHNLQTLHMSLEDSIKWLGEVMAEIGPNHSQKSEDFHVFEVKEANAIIDYLKISLFQHYRLYEFLFYSTREEIVIGTEQTIEVVKPADYPFPAPLEEGISLDTYSTFIEPLPTPDMEQKVLDQEQGTQEALLESEMREEDPLGGFTIDDVKSALERVTDEVLISMQKEISEKLQVQEEAFNARIEKLKKA
B2: IFT88 protein in the testes of Ccdc189-EGFP mice (protein, UniProt Q61371 1-824)
chain: MENVHLAPETDEDDLYSGFNDYNPAYDTEELENDTGFQQAVRTSHGRRPPVTAKIPSTAVSRPIATGYGSKTSLTSSMGRPMTGTIQDGVARPMTAVRAAGFSKAALRGSAFDPLGQSRGPAPPLEAKNEDSPEEKIRQLEKKVNELVEESCIANSCGDLKLALEKAKDAGRKERVLVRQREQVTSPENINLDLTYSVLFNLASQYSANEMYAEALNTYQVIVKNKMFSNAGRLKVNMGNIYLKQRNYSKAIKFYRMALDQIPSVHKEMRIKIMQNIGITFIKTGQYSDAINSFEHIMSMAPSLKAGFNLILSCFAIGDREKMKKAFQKLIAVPLEIDEDDKYISPSDDPHTNLLIEAIKNDHLRQMERERKAMAEKYIMTAAKLIAPVIEASFAVGYNWCVEVVKASQYVELANDLEINKAITYLRQKDFNQAVDTLKMFEKKDSRVKSAAATNLSFLYYLENEFAQASSYADLAVNSDRYNPSALTNKGNTVFANGDYEKAAEFYKEALRNDSSCTEALYNIGLTYKKLNRLDEALDSFLKLHAILRNSAQVLCQIANIYELMEDPNQAIEWLMQLISVVPTDSQALSKLGELYDSEGDKSQAFQYYYESYRYFPSNIEVIEWLGAYYIDTQFCEKAIQYFERASLIQPTQVKWQLMVASCFRRSGNYQKALDTYKEIHRKFPENVECLRFLVRLCTDIGLKEVQEYATKLKRLEKMKEMREQRIKSGRDSSGGSRSKREGSAGSDSGQNNSASSKSERLSAKLRALPGTDEPYESSGNKEIDASYVDPLGPQIERPKTAAKKRIDEDDFADEELGDDLLPE

Each molecule was assayed against CCDC189-EGFP (EGFP-tagged Ccdc189 knock-in allele), in mouse testes (mouse) (UniProt Q6NZQ0) (assay: affinity purification with mass spectrometry; co-IP with an anti-GFP antibody from testes of Ccdc189-EGFP mice, compared to wild-type control mice, then mass spectrometry).

“IFT20 in the testes of Ccdc189-EGFP mice (from UniProt Q61025 1-132)” was tested. Which binding did it give?
Its binding is “binds”.

For B1, which binding is on record?
Its binding is “binds”.

B2 was tested. Which binding did it give?
Its binding is “binds”.
